# Primary screen of a compound library

Chains of the proteins cited; added tags and fusions are not shown.
UniProt P9WFT3, whole entry: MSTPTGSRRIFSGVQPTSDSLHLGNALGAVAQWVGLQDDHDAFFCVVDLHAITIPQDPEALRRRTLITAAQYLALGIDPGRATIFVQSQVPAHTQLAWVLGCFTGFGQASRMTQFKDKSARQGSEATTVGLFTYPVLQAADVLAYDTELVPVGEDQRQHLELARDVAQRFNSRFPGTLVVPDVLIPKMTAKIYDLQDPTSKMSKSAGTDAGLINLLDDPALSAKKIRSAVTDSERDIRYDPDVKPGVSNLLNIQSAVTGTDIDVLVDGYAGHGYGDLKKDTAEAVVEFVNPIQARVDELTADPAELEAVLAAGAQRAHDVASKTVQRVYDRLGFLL
UniProt P9WPC5, whole entry: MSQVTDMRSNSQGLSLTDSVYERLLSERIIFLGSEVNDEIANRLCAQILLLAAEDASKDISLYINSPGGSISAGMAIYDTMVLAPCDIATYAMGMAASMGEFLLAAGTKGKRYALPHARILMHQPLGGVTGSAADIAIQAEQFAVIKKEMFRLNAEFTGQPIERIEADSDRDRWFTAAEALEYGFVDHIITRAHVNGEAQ
UniProt P9WPC3, whole entry partner: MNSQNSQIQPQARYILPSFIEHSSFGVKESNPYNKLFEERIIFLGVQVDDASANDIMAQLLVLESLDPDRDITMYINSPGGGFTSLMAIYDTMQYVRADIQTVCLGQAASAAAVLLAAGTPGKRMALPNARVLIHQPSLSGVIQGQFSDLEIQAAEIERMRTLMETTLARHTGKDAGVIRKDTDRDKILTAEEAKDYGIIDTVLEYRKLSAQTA

Source: ChEMBL document CHEMBL3988442, “University of Dundee, Small-Polar-MMV Screening Library” (2021).

A: 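Tryptophan-tRNA ligase, Mycobacterium tuberculosis (UniProt P9WFT3). Enzyme assay of tryptophanyl-tRNA synthetase; the read-out is not stated. Concentration: 10 µM. Direction is not recorded; retested compounds ran higher, which suggests that high means inhibition. Of about 65,000 compounds tested this way, about 64 (0.098%) reached 50% or more in at least one test.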
B: 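ClpP1P2, Mycobacterium tuberculosis (UniProt P9WPC5 and UniProt P9WPC3). Protease assay of ClpP1P2, read by the AMC dye that it sets free. Compounds at 50 µM. Higher reads as stronger inhibition, judged from the few compounds that gave an IC50. Most other retested compounds had strongly negative values. About 69,000 compounds were tested under these conditions; 0.015% (about 10) showed 50% or more at least once.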

Values are the deposited “Percent Effect”, in %. The controls that fix the scale are not given in the record; negative values are as filed. This is an unselected part of the compounds tested. A dash means the value is not listed here; it may have been measured.

Compound	A	B
O=C(O)[C@@H]1CN(C(=O)CSCCN2CCCC2)C[C@H]1c1ccccc1	-4.104%	-3.797%
COc1cc2c(cc1CNCc1cccnc1-n1cccn1)OC(C)C2 (stereo not drawn)	-3.123%	10.59%
CC[C@H]1N(Cc2ccco2)CCC[C@]12CCC(=O)N2C	-0.1658%	-0.728%
Cc1nnc2n1CCN(Cc1nc3c(F)cccc3[nH]1)C2	-3.451%	-6.218%
COc1ccc(COCC(O)CNC(=O)c2cccnc2)cc1 (stereo not drawn)	-0.8772%	4.775%
CCNC(=O)[C@@H]1C[C@@H](NC(=O)c2ccsc2)CN1CCCSC	8.068%	0.217%
Cc1cc(C(=O)N2CC[C@H]3[C@H](C[C@@H](CN4CCCC4)N3C)C2)c(C)o1	-	-14.02%
Cc1cccc2c1CCN(c1cc(N3CCCC3CO)ncn1)C2 (stereo not drawn)	0.08136%	4.513%
Cc1ccc(N2CCCN(C(=O)CCc3nccs3)CC2)nn1	-4.263%	-26.95%
CCCN1CCN(C(=O)c2ccc(Cn3cc(Br)cn3)cc2)CC1	3.072%	-2.393%
Cc1n[nH]c(C)c1NC(=O)CN1CCn2c(nnc2C(C)C)C1	-4.926%	5.737%
CN(Cc1ccncc1)C(=O)NCc1cn(-c2ccccc2)nn1	-1.332%	-13.99%
COc1ccc(-c2noc(C3=NN(C)C(=O)CC3)n2)cc1OC	-3.028%	-0.2154%
COCCN1CCC2(CC1)CC(N1CCOCC1)c1cc(C)ccc12 (stereo not drawn)	-5.478%	16.15%
O=C1[C@H]2CN(Cc3nccs3)C[C@H]2CN1c1ccsc1	0.959%	3.154%
COc1ccc(C(=O)NCCCC2(C3OCCO3)CCOCC2)cc1	-3.515%	-3.893%
Clc1cc(Cl)cc(CN2CCC(NCc3ncc[nH]3)CC2)c1	-0.7802%	-13.35%
CCOCC(=O)N1CCC(C2CCN(Cc3ccc(Cl)cc3)C2)CC1 (stereo not drawn)	1.49%	-13.64%
O=C(c1ccncn1)N1CCC[C@]2(C[C@H](Oc3ncccc3F)CO2)C1	-0.6006%	5.477%
CC(C)NC(=O)[C@@H]1CCO[C@@H]2CCN(c3ncccn3)C[C@@H]21	-5.669%	-3.373%
Cc1nc(C2CCCN(C(=O)c3cccc4c3OCO4)C2)no1 (stereo not drawn)	2.437%	15.91%
Cc1noc(C)c1CN1CCN(Cc2nccn2C)C(C)C1 (stereo not drawn)	2.911%	-9.436%
CC[C@H](C)Nc1nccc(-c2cnc3sc(C)cn3c2=O)n1	-	-13.95%
CC(NC(=O)Nc1ccc(OC2CCCC2)cc1)c1nc[nH]n1 (stereo not drawn)	11.7%	-4.768%
CCn1ccc(-c2cc(NCCCOc3cccc(C)c3)nc(C)n2)n1	0.8587%	-20.18%
COC(=O)CCC(=O)N(Cc1ccc2cc[nH]c2c1)C1CC1	4.068%	-10.19%
COc1ccc2nc(CNC(=O)C3CC4(CCNCC4)CN3C)[nH]c2c1 (stereo not drawn)	1.683%	-42.48%
c1ccc(NCc2ccsc2)c(Cn2cncn2)c1	0.8474%	-3.283%
Cc1nccc(C2CN(Cc3cc[nH]n3)CCO2)n1 (stereo not drawn)	0.7525%	-6.045%
CCc1ncc(C(=O)N2CC[C@@H]3CC[C@H](C2)N3C)cn1	-1.255%	-11.74%
CC(C)CN1CC[C@@H]2[C@@H]1CCN2S(=O)(=O)c1cn(C)cn1	1.623%	9.035%
CC(C)Cc1ncc2c(n1)CN(C(=O)c1ccc(Cn3ccnc3)o1)C2	-4.931%	-9.508%
Cn1ccnc1CN1CCCCC1Cn1cccn1 (stereo not drawn)	-3.606%	5.742%
CN(Cc1ccccc1)c1ncccc1CNC1CCC1	-2.342%	-13.43%
O=C1NCCN1C1CCN(Cc2nc(-c3ccsc3)no2)CC1	3.116%	-7.441%
Cc1cn(CC(=O)NC2CCN(S(C)(=O)=O)CC2)c2ccccc12	0.5029%	-15.93%
CCn1nc(C)c(CCn2ccnc2-c2cc3n(n2)CCCNC3)c1C	-1.421%	-14.97%
CC(C)Nc1ncnc2c1CCN(C(=O)[C@H]1CCCO1)CC2	-3.151%	8.707%
CC(=O)NC1CCN(c2cnc(C3CCNCC3)cn2)CC1	0.1447%	-41.3%
COc1ccc(CCC(=O)NCc2cc(C)on2)cc1	-0.07598%	10.8%
CC(NC(=O)NCCCN(C)S(C)(=O)=O)c1ccc(Cl)cc1 (stereo not drawn)	-4.473%	1.94%
c1ccc([C@@H]2CN(Cc3ccncc3)C[C@H]2c2cc[nH]n2)cc1	-5.154%	-23.13%
Cc1cc(C(=O)NCc2ccc(N3CCN(C)CC3)nc2)c(C)s1	-6.136%	-19.47%
CNc1ncc(-c2ccc(NC(=O)[C@@H]3CCCCN3)cc2)cn1	-	7.124%
Cc1cccn2c(=O)cc(OC(=O)c3ccccc3Cl)nc12	4.431%	-10.4%
COCCN1CCC(CNc2nc3ccccc3o2)CC1	-5.094%	-3.068%
CCCc1noc(CN2CCN(c3nccs3)CC2)n1	2.03%	-0.9959%

The first 6 entries again:

Compound	A	B
O=C(O)[C@@H]1CN(C(=O)CSCCN2CCCC2)C[C@H]1c1ccccc1	-4.104%	-3.797%
COc1cc2c(cc1CNCc1cccnc1-n1cccn1)OC(C)C2 (stereo not drawn)	-3.123%	10.59%
CC[C@H]1N(Cc2ccco2)CCC[C@]12CCC(=O)N2C	-0.1658%	-0.728%
Cc1nnc2n1CCN(Cc1nc3c(F)cccc3[nH]1)C2	-3.451%	-6.218%
COc1ccc(COCC(O)CNC(=O)c2cccnc2)cc1 (stereo not drawn)	-0.8772%	4.775%
CCNC(=O)[C@@H]1C[C@@H](NC(=O)c2ccsc2)CN1CCCSC	8.068%	0.217%